Experimental data taken from paper doi:10.1101/825323.
These are yes or no findings as the source states them, for the method shown. For part of these data: Binding seen in cells or lysates may run through a third protein. Some results given as binding are weak or reduced against the parent protein; the word gives no strength. Where a sequence is shown, tags or fusion partners need not be part of it. Blank lines part the entries; values can stand above or below the molecule they belong to.

Sequences of proteins named here, by UniProt entry; tags and fusion partners are left off.
UniProt Q39026: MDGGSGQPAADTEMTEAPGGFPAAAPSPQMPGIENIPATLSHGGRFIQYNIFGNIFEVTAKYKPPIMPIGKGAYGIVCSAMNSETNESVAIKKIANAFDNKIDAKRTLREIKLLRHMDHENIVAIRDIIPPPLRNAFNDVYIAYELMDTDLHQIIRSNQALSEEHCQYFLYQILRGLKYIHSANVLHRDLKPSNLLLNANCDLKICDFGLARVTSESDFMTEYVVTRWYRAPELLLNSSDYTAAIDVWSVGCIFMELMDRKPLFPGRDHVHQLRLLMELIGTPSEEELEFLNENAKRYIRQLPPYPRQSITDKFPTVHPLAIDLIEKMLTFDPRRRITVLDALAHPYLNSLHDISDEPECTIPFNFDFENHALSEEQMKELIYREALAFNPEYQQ

Key:
[1] = target: T1, calmodulin-binding transcription activator 3 (CAMTA3) fused with a C-terminal fragment of YFP (cYFP) (Arabidopsis thaliana) (UniProt Q8GSA7); experiment: split reporter
T1 sequence: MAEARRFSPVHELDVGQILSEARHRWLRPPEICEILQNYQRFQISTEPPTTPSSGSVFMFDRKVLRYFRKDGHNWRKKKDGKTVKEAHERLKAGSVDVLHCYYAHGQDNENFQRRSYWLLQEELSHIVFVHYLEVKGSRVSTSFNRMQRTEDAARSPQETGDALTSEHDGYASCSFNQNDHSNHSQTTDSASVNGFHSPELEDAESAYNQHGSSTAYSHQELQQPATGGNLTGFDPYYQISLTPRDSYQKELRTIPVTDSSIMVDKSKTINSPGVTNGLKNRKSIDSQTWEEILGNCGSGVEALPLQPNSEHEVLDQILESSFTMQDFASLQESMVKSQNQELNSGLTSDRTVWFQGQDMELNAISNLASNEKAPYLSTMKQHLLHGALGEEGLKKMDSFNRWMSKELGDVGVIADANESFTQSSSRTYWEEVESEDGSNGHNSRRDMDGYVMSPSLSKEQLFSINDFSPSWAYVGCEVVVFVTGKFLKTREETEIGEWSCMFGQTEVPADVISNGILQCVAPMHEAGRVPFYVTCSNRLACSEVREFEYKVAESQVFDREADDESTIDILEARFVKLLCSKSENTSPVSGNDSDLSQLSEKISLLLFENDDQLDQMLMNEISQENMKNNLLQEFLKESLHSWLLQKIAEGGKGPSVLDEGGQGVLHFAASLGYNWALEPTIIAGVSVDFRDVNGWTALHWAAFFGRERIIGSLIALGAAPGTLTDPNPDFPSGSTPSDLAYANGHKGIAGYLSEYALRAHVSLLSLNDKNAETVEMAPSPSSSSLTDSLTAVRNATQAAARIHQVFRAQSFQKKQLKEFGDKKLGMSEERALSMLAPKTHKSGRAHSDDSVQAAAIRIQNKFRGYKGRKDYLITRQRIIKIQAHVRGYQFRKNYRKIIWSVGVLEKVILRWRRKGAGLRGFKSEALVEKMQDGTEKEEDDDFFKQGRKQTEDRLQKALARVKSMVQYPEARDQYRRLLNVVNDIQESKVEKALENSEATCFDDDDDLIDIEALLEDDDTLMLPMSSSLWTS

[2] = target: T2, CAMTA3 (yeast two-hybrid fusion, GAL4-based system) (Arabidopsis thaliana) (UniProt Q8GSA7); experiment: two-hybrid
T2 sequence: T1 sequence

[3] = target: T3, CAMTA3 (BiFC fusion used against SR1IP1) (Arabidopsis thaliana) (UniProt Q8GSA7); experiment: split reporter
T3 sequence: T1 sequence

[4] = target: T4, CAMTA3 (split-LUC fusion) (Arabidopsis thaliana) (UniProt Q8GSA7); experiment: split reporter
T4 sequence: T1 sequence

binding [1]: binds
Molecule: MPK6 fused with an N-terminal fragment of YFP (nYFP) (from UniProt Q39026 1-395) (enzyme)

binding [1]: binds
B5: MPK3 fused with an N-terminal fragment of YFP (nYFP) (enzyme, UniProt Q39023 1-370)
chain: MNTGGGQYTDFPAVETHGGQFISYDIFGSLFEITSKYRPPIIPIGRGAYGIVCSVLDTETNELVAMKKIANAFDNHMDAKRTLREIKLLRHLDHENIIAIRDVVPPPLRRQFSDVYISTELMDTDLHQIIRSNQSLSEEHCQYFLYQLLRGLKYIHSANIIHRDLKPSNLLLNANCDLKICDFGLARPTSENDFMTEYVVTRWYRAPELLLNSSDYTAAIDVWSVGCIFMELMNRKPLFPGKDHVHQMRLLTELLGTPTESDLGFTHNEDAKRYIRQLPNFPRQPLAKLFSHVNPMAIDLVDRMLTFDPNRRITVEQALNHQYLAKLHDPNDEPICQKPFSFEFEQQPLDEEQIKEMIYQEAIALNPTYG

The next lines start with the molecule.

B1: MPK8-nYFP fusion (enzyme, UniProt Q9LM33 1-589)
chain: MGGGGNLVDGVRRWLFQRPSSSSSSSSSNNNNNNHEQPIFNSSSFSSSSNPNHSANSGELIIEEDLDFSGLTLINVPKRNHLPMDPHKKGETEFFTEYGEANRYQIQEVVGKGSYGVVASAVDSHTGERVAIKKINDVFEHVSDATRILREIKLLRLLRHPDVVEIKHIMLPPSRREFRDIYVVFELMESDLHQVIKANDDLTPEHYQFFLYQLLRGLKYVHAANVFHRDLKPKNILANADCKLKICDFGLARVSFNDAPTAIFWTDYVATRWYRAPELCGSFFSKYTPAIDIWSVGCIFAEMLLGKPLFPGKNVVHQLDLMTDFLGTPPPESISRIRNEKARRYLSSMRKKQPVPFSHKFPKADPLALRLLERLLAFDPKDRASAEDALADPYFSGLSNSEREPTTQPISKLEFDFERKKLVKDDVRELIYREILEYHPQMLEEYLRGGDQLSFMYPSGVDRFKRQFAHLEENQGKPGAAGGGRSTALHRHHASLPRERVPAPNGETAEESSDVERRAAAAVASTLESEEADNGGGYSARNLMKSASISGSKCIGVQSKTDKEDTIAEEEDNETVAELTDKVASLHNS
binding [1]: no binding

B2: SR1IP1 (SR1 Interaction Protein 1) (yeast two-hybrid fusion, GAL4-based system) (protein, UniProt Q66GP0 1-604)
chain: MSAKKKDLLSSAMKRTSEWISSQEVSSDVTVHVGEASFSLHKFPLMSKCGFIKKLVSESSKDSDSTVIKIPDIPGGSEAFELAAKFCYGINFDMSTENIAMLRCAAEYLEMTEEHSVENLVVRAEAYLNEVALKSLSSSITVLHKSEKLLPIAERVKLVSRCIDAIAYMTCQESHFCSPSSSNSGNNEVVVQQQSKQPVVDWWAEDLTVLRIDSFQRVLIAMMARGFKQYGLGPVLMLYAQKSLRGLEIFGKGMKKIEPKQEHEKRVILETIVSLLPREKNAMSVSFLSMLLRAAIFLETTVACRLDLENRMGLQLGQAVLDDLLIPSYSFTGDHSMFDTDTVQRILMNYLEFEVEGVRLSNNGVDLAGDMERVGKLLENYMAEIASDRNVSLQKFIGLAELIPEQSRVTEDGMYRAVDIYLKAHPNMSDVERKKVCSLMDCQKLSREACAHAAQNDRLPVQTIVQVLYYEQQRLRGEVTNDSDSPAPPPPQPAAVLPPKLSSYTDELSKLKRENQDLKLELLKMKMKLKEFEKESEKKTSSSTISTNPSSPISTASTGKPPLPRKSFINSVSKKLGKLNPFSITPYNGRGRTKPPKDRRHSIS
binding [2]: no binding

B3: SR1IP1 (BiFC fusion) (protein, UniProt Q66GP0 1-604)
chain: B2 chain
binding [3]: no binding

B4: SR1IP1 (split-LUC fusion) (protein, UniProt Q66GP0 1-604)
chain: B2 chain
binding [4]: no binding
